Test results taken from PubChem BioAssay AID662 (National Center for Advancing Translational Sciences (NCATS), 2007).
“And” between values parts separate entries of the source, which are not always exact repeats. Identical values can stand only once. The list shows a part of the results. The main result of the screen is listed elsewhere. These columns were measured beside it and carry no call. The list favours compounds with an active or inconclusive main result. The note in brackets gives the kind of curve behind each potency; many fits are weak.

Test: Cell signaling CRE-BLA (Fsk stim)
Conditions: CHO CRE-bla reporter (cAMP response element driving beta-lactamase), forskolin EC10, beta-lactamase ratio; measured here: 460 nm blue channel
How it was run: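 Beta-lactamase reporter under a cAMP responsive element in CHO cells; compounds tested in titration series against EC10 NKH 477, 3 h at 37 °C. Read-out: CCF4 FRET ratio 460nm/530nm (excitation 405nm) giving %Activity, fitted to AC50.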

Compound | AC50
Cc1nc2cc(C(F)(F)F)ccc2n1C1CCN(Cc2nnnn2Cc2ccc3c(c2)OCO3)CC1 | 25.1 µM [falling, single point]
CC(c1ccc(F)cc1)n1cc(C(=O)NCc2ccc3c(c2)OCO3)nn1 (stereo unspecified) | 1.58 µM [falling, partial curve]
COc1cc2c(cc1O)[C@H]1Cc3ccc(OC)c(O)c3CN1CC2 | 12.6 µM [rising, single point]
Cc1cc(C)c(C(=O)CN2CCOCC2)c(C)c1 | 25.1 µM [rising, single point]
COC(=O)C(C)Oc1cc(C)cc2oc(=O)c3c(c12)CCC3 (stereo unspecified) | 5.01 µM [rising, partial curve]
Cc1cccnc1-n1c(CN2C(=O)c3ccccc3C2=O)nc2ccccc2c1=O | 0.251 µM [falling, full curve, poor fit]
CCOC(=O)c1cncn1C(C)c1ccccc1 (stereo unspecified) | 15.8 µM [falling, single point]
Cc1noc(C)c1C(=O)N1CCC2(CCCN(CC(C)C)C2)CC1 | 12.6 µM [rising, partial curve]
COc1ccc2c(c1OC)C(=O)O[C@H]2[C@H]1c2cc3c(cc2CCN1C)OCO3 | 10 µM [rising, partial curve, poor fit]
CN1C(=O)c2ccccc2Sc2ccc(C(=O)N3CCC4(CC3)OCCO4)cc21 | 25.1 µM [falling, single point]
C(=NC12CN3CN(CN(C3)C1)C2)c1cccnc1 | 0.0158 µM [falling, full curve, poor fit]
O=C(c1cc2cc3ccc(Cl)cc3nc2o1)N1CCC2(CC1)OCCO2 | 0.631 µM [rising, full curve]
CC(C)(C)c1cc(C=C(C#N)C#N)cc(C(C)(C)C)c1O | 1 µM [falling, full curve]
CCn1nc(-c2ccccc2)nc2c(=O)n(C)c(=O)nc1-2 | 3.16 µM [falling, full curve]
COCCNC(=O)c1c(NC(=O)c2ccco2)n(Cc2ccccc2)c2nc3ccccc3nc12 | 1 µM [rising, full curve]
C[C@@H]1C[C@@H]([C@H](O)CC2CC(=O)NC(=O)C2)C(=O)[C@@H](C)C1 | 0.794 µM [falling, full curve]
Cc1cc(Br)ccc1N1C(=O)CC(=O)NC1=O | 0.00631 µM [falling, full curve]
c1cncc([C@@H]2CCCCN2)c1 | 20 µM [falling, partial curve, poor fit]
CCOC(=O)c1c(C)n(COCCO)c2ccc(O)cc12 | 3.98 µM [falling, single point]
O=P1(NCc2ccco2)COc2ccccc2OC1 | 0.0794 µM [falling, full curve, poor fit]
O=c1c2ccccc2nc(-c2ccco2)n1-c1ccc(Br)cn1 | 3.98 µM [rising, single point]
CC[C@H](CO)NC(=O)[C@H]1C=C2c3cccc4[nH]cc(c34)C[C@H]2N(C)C1 | 2 µM [falling, partial curve, poor fit]

Compound | AC50
Oc1ccc2[nH]cc(CCCCN3CC=C(c4ccccc4)CC3)c2c1 | 25.1 µM [falling, single point]
CC(C)(C)[C@@]1(O)C[C@@H]2OC(=O)C[C@@]23C(=O)O[C@H]2OC(=O)[C@@H](O)[C@]231 | 31.6 µM [falling, single point]
Oc1c(Cl)c(Cl)cc(Cl)c1Cl | 1 µM [rising, full curve, poor fit]
Clc1ccc(C(c2ccc(Cl)cc2)C(Cl)Cl)cc1 | 15.8 µM [falling, partial curve]
CN(C=O)CP(=O)(O)CN(C)C=O | 10 µM [rising, partial curve]
COc1ccc(CN2C(=O)CC(=O)NC2=O)cc1 | 12.6 µM [falling, single point]
Cc1cc([P+](=O)O)c(C)n1-c1ccc(Br)cc1 | 0.1 µM [falling, full curve]
CC(C)(O)[C@H]1[C@H]2OC(=O)[C@@H]1[C@]1(O)C[C@H]3O[C@]34C(=O)O[C@H]2[C@]14C | 25.1 µM [falling, single point]
O[C@@H]1[C@H](O)[C@H]2[C@@H](O)CCN2C[C@@H]1O | 15.8 µM [falling, partial curve, poor fit]
OC(COCc1ccc(Cl)cc1)CN1CC=C(c2ccccc2)CC1 (stereo unspecified) | 3.98 µM [falling, single point]
ClC(Cl)=C(c1ccc(Cl)cc1)c1ccc(Cl)cc1 | 7.94 µM [rising, partial curve, poor fit] and 12.6 µM [rising, partial curve, poor fit]
O=C(O)C1=CCCN(CCOC(c2ccc(C(F)(F)F)cc2)c2ccc(C(F)(F)F)cc2)C1 | 25.1 µM [falling, partial curve, poor fit]
O=C(CCl)c1ccc(Cl)cc1Cl | 7.94 µM [falling, partial curve, poor fit]
CN[C@@H](C)[C@@H](O)c1ccccc1 | 25.1 µM [falling, partial curve]
CCN(CC)C(=O)N[C@@H]1C=C2c3cccc4[nH]cc(c34)C[C@@H]2N(C)C1 | 12.6 µM [rising, single point]
CCC1(c2ccccc2)C(=O)N(COC)C(=O)N(COC)C1=O | 0.316 µM [rising, full curve]
O=C1/C(=C\c2ccccc2)C[C@@]2(O)[C@H]3Cc4ccc(O)c5c4[C@@]2(CCN3CC2CC2)[C@@H]1O5 | 15.8 µM [falling, partial curve, poor fit]
CCCCCC[C@H]1C(=O)O[C@@H](C)[C@H](NC(=O)c2cccc(NC=O)c2O)C(=O)O[C@@H](C)[C@@H]1OC(=O)CC(C)C | 25.1 µM [falling, partial curve, poor fit]
C[C@]12CC[C@H](O)C[C@@H]1CC[C@H]1[C@H]2CC[C@]2(C)C(=O)CC[C@@H]12 | 10 µM [rising, single point]
O=C(CN1CCN(Cc2ccc(Cl)cc2)C1=O)N1CCC2(CC1)OCCO2 | 15.8 µM [rising, single point]
CCCNc1oc(-c2cccc3ccccc23)nc1C#N | 25.1 µM [rising, partial curve]
C[C@H](N)Cc1c[nH]c2ccc(O)cc12 | 12.6 µM [falling, partial curve, poor fit]

Compound | AC50
CC(Oc1ccc(-c2ccccc2)cc1)C(=O)O (stereo unspecified) | 0.794 µM [falling, full curve]
Cc1ccc2c(c1)CC1(CN2C)C(=O)NC(=O)N(c2cc(C)ccc2C)C1=O (stereo unspecified) | 12.6 µM [falling, partial curve]
CCn1c(=O)cc(OCC(=O)N2CCN(Cc3ccc4c(c3)OCO4)CC2)c2ccccc21 | 7.94 µM [rising, partial curve]
N=C(N)c1c(O)n(C2CCCCC2)c(=O)n(C2CCCCC2)c1=O | 25.1 µM [falling, single point]
O=C(Oc1ccccc1)N1CCC2(CCCN(Cc3nccs3)C2)CC1 | 5.01 µM [falling, single point]
CN1CC[C@@]2(c3cccc(O)c3)Cc3nc4ccccc4cc3C[C@H]2C1 | 31.6 µM [falling, single point]
O/N=C/c1c[nH]c2ccccc12 | 7.94 µM [falling, partial curve]
COc1cc2ccccc2c2cc([N+](=O)[O-])oc12 | 1.26 µM [rising, partial curve]
Oc1cc2c(cc1O)[C@H]1c3ccccc3CN[C@H]1CC2 | 31.6 µM [falling, single point]
CC1CCC(C(=O)NC(C(=O)N2CCC3(CC2)OCCO3)C(C)C)CC1 (stereo unspecified) | 2 µM [falling, partial curve, poor fit]
COc1cc2[nH]c(=O)n(-c3ccccc3)c(=O)c2cc1OC | 0.398 µM [rising, full curve, poor fit]
CC(C)OC(=O)c1c(N)n(CC2CCCO2)c2nc3ccccc3nc12 (stereo unspecified) | 10 µM [rising, partial curve]
Cc1sc2ncn(CC(=O)N3CCC4(CC3)OCCO4)c(=O)c2c1C | 0.00398 µM [falling, full curve, poor fit]
CC1(C)CN=C(Nc2ccccc2C(F)(F)F)S1 | 10 µM [rising, partial curve]
[Cl-].[Cl-].[Hg+2] | 1.26 µM [falling, full curve]
O=c1ccc2cc(O[C@H]3O[C@@H](CO)[C@@H](O)[C@@H](O)[C@@H]3O)c(O)cc2o1 | 10 µM [rising, partial curve]
CC[C@]1(OC(=O)CN)C(=O)OCc2c1cc1n(c2=O)Cc2cc3ccccc3nc2-1 | 0.0631 µM [rising, full curve]
C(#CCN1CCCC1)CN1CCCC1 | 5.01 µM [rising, single point]
CCCSc1nc(O)c(CC)c(=O)n1C(C)CC (stereo unspecified) | 5.01 µM [rising, single point]
COCCCn1c(N)c(C(=O)NCCC(C)C)c2nc3ccccc3nc21 | 12.6 µM [rising, partial curve]
CCC(=NCc1cccnc1)c1c(O)n(Cc2ccccc2)c(=O)[nH]c1=O | 1.58 µM [rising, full curve, poor fit]
COc1ccc(C2=NCC(=O)N(CC(=O)NCc3ccco3)c3sc4c(c32)CCCC4)cc1OC | 3.98 µM [rising, single point]
